Values joined by “and” are separate entries in the source; they are usually repeats but may differ in a detail not shown here. Equal entries are not always repeated. Among all 390,000 compounds or so, about 4,000 (1%) were called active. Inconclusive means that the source gave no clear call. Such entries were picked first, then a sample of the others. The call rests on the fitted dose curve; in most records, active means well fitted inhibition curve with a large enough effect; inconclusive means small, poorly fitted or top-dose-only effect, or another doubt; inactive means no such curve, though single readings can be large or run the other way. A potency beside an inconclusive call is a rough fit, not a confirmed value. Some structures have more than one record in an assay (separate samples or runs), and their calls can disagree.
Molecular target: DNA polymerase iota (Homo sapiens) (UniProt Q9UNA4)
Experiment: qHTS for Inhibitors of Polymerase Iota
Conditions: Pol iota fluorescent replication assay, 10 min; series mostly up to 115 µM; activity, negative = inhibition: at the top concentration
In short: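 Fluorescent replication assay read twice, at 0 min and 10 min after adding 50 nM (final) substrate. Enzyme (10 nM) and compounds were first incubated 15 min at room temperature; enzyme-free buffer wells were negative controls.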
Potency means the concentration at half of the fitted maximal effect.

Chains of the proteins cited; added tags and fusions are not shown. Lines headed by an entry give the natural chain unless they say otherwise; changes in a name come on top.
UniProt Q9UNA4: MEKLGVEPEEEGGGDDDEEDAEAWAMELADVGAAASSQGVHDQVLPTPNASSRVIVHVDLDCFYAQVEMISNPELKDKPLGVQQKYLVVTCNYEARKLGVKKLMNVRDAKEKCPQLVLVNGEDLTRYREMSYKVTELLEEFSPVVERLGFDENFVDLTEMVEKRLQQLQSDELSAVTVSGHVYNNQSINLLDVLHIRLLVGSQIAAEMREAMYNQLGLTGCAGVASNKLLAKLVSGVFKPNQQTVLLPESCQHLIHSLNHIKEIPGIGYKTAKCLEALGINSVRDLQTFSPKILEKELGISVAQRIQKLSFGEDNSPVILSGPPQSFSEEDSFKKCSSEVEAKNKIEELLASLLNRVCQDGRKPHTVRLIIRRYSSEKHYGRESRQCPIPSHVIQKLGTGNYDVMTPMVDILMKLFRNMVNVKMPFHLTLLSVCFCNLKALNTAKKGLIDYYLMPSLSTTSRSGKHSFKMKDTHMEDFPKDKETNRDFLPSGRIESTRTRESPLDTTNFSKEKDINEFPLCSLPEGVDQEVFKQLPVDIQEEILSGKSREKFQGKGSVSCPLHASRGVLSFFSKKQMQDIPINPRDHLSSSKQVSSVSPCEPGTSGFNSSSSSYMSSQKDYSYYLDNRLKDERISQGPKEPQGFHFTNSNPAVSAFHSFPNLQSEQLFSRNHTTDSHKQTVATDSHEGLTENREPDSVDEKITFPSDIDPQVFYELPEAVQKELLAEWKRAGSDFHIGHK

Potency, inactive and 89.1 µM (active):
CCC/C=C1/CCCOC(C(=O)NCc2ccccn2)(C(F)(F)F)C1 (stereo not given)

Potency, active:
COc1ccc(Cc2nc3ccc(S(=O)(=O)N4CCOCC4)cc3[nH]2)cc1 79.4 µM, Cc1[nH][nH]c(=O)c1C(c1ccc(-c2cccc(C(=O)O)c2)o1)c1c(C)[nH][nH]c1=O 2.24 µM, O=C1C2C(C(=O)N1/N=C/c1cc([N+](=O)[O-])c(O)cc1O)C1C=CC2C12CC2 (stereo not given) 20 µM, C/C(N)=C(/C#N)C(=O)CSc1nc2ccccc2[nH]1 20 µM, O=C(O)c1ccc(N=Cc2c(O)ccc3ccccc23)cc1 12.6 µM

Potency, inconclusive:
O=C1CSC(=S)N1N=Cc1cccc2ccccc12 20 µM [inhibitor, full curve, poor fit], O=C(CNC(=O)c1ccco1)Nc1cc(Cl)ccc1N1CCOCC1 70.8 µM [inhibitor, single point], Cc1ccc(-c2noc(CSc3nnc(Cc4ccccc4)n3-c3cccc(C)c3)n2)cc1 25.1 µM [inhibitor, single point], Cc1c2ccncc2cc2c1[nH]c1ccccc12 20 µM [inhibitor, full curve], CN(CC(=O)Nc1ccccc1Cl)C(=O)CSc1nnc(-c2ccco2)n1C 56.2 µM [inhibitor, single point], O=C(CSS(=O)(=O)O)N1CCN(C(=O)c2ccoc2)CC1 14.1 µM [inhibitor, partial curve, poor fit], Fc1ccc(C2Nc3cccc4cccc(c34)N2)cc1 2.82 µM [inhibitor, full curve, poor fit], CCN1CCN(C(C(=O)NC2CCCC2)c2ccc(Cl)cc2)CC1 (stereo not given) 70.8 µM [inhibitor, partial curve], COc1ccc(CCNC(=O)c2cc3c(=O)n4cccc(C)c4nc3n(CCCN3CCOCC3)c2=N)cc1 89.1 µM [inhibitor, single point], Cc1cccc(N=C2C(=O)Nc3c(Cl)cccc32)c1 20 µM [inhibitor, full curve, poor fit], O=C(CCS(=O)(=O)c1nc(-c2ccc3c(c2)OCO3)cc(C(F)(F)F)n1)Nc1ccccc1F 20 µM [inhibitor, single point], CN=C1S/C(=C\c2cc(C)n(-c3ccccc3F)c2C)C(=O)N1C 100 µM [inhibitor, single point], Cn1c(=S)c2[nH]c(SCCN)nc2n(C)c1=O 28.2 µM [inhibitor, partial curve, poor fit], O=C(N/N=C/c1ccc([N+](=O)[O-])cc1)c1ccc2nc[nH]c2c1 10 µM [inhibitor, single point], CCN(CC)c1ccc(NC(=O)CSc2nc(C3CC3)nc3ccccc23)cc1C 20 µM [inhibitor, single point], O=c1[nH]nc(N/N=C/c2ccccc2OC(F)F)c(=O)[nH]1 56.2 µM [inhibitor, partial curve, poor fit], O=c1[nH]c2cc3c(cc2cc1CN(Cc1cccs1)Cc1nnnn1Cc1ccco1)OCCO3 15.8 µM [inhibitor, full curve, poor fit], CCOc1cc(/C=C(\C#N)C(=O)Nc2cccc(C(=O)O)c2)ccc1OCc1ccccc1Cl 28.2 µM [inhibitor, single point], CC(O)[C@H](NC(=O)C1(c2ccccc2)CCN(C(=O)OC(C)(C)C)CC1)C(=O)O (stereo not given in full) 89.1 µM [inhibitor, single point], CCCC(NC(=O)Cc1c(C)c2cc3c(C)c(C)oc3c(C)c2oc1=O)C(=O)N[C@@H](Cc1ccccc1)C(=O)O (stereo not given in full) 39.8 µM [inhibitor, single point], COC(=O)Cc1[nH]c(Cl)nc1C(N)=O 89.1 µM [inhibitor, partial curve, poor fit], COc1ccc(CCC(C)Nc2cccc(F)c2)cc1 (stereo not given) 20 µM [inhibitor, partial curve, poor fit], COc1cc(NS(=O)(=O)c2ccc3[nH]c4c(c3c2)CCCCCC4)cc(OC)c1 31.6 µM [inhibitor, single point], CC1=C(C#N)C(c2cn(-c3ccccc3)nc2-c2cccs2)C(C#N)=C(C)N1 56.2 µM [inhibitor, partial curve, poor fit], Cc1ccc(NC(=O)C(C)OC(=O)COc2cccc(C(F)(F)F)c2)cc1S(=O)(=O)N1CCOCC1 (stereo not given) 10 µM [inhibitor, full curve, poor fit], COc1ccc(NC(=O)CSc2ncccc2C(=O)OC(C)C)cc1OC 63.1 µM [inhibitor, partial curve, poor fit], CCOC(=O)c1cc(-c2ccccc2)n(-c2cccc(C(=O)Nc3ccc(OCC)cc3)c2)c1C 89.1 µM [inhibitor, partial curve, poor fit], NNc1nc2sc3c(c2c(=O)n1Cc1ccccc1)CCC3 56.2 µM [inhibitor, partial curve, poor fit], N#C/C(=C\c1coc2ccc(O)cc2c1=O)C(=O)Nc1nc2ccccc2s1 1.26 µM [inhibitor, full curve, poor fit], O=C(O)c1cccc2c1C(=O)N(C1CCCCC1)C2 50.1 µM [inhibitor, single point], CC(C)NC(=O)N(C)C[C@H]1Oc2ccc(NC(=O)CCN3CCOCC3)cc2C(=O)N([C@H](C)CO)C[C@@H]1C 89.1 µM [inhibitor, single point], CCC(Cn1nnc2ccccc2c1=O)NC(=O)Nc1ccc(C)c(C)c1 (stereo not given) 89.1 µM [inhibitor, single point], O=C(CCNC(=O)c1ccc([N+](=O)[O-])cc1)Nc1nccs1 89.1 µM [inhibitor, single point], CCc1nn(C)c(-c2n[nH]c(=S)n2N)c1Cl 10 µM [inhibitor, partial curve, poor fit], Cc1ccc(-c2nc3ccccc3o2)cc1NC(=S)NC(=O)/C=C/c1ccco1 11.2 µM [inhibitor, partial curve, poor fit], O=S(=O)(c1ccc(Oc2ncnc3scc(-c4ccccc4)c23)cc1)N1CCOCC1 7.08 µM [inhibitor, full curve, poor fit], NC1=NC(=O)/C(=C/c2cccc(-c3ccc(S(N)(=O)=O)cc3)c2)S1 28.2 µM [inhibitor, partial curve], C=CCc1cccc2cc(C(=O)N3CCN(C(=O)c4ccco4)CC3)c(=O)oc12 79.4 µM [inhibitor, partial curve, poor fit], CCn1c(SC(C)C(=O)NCc2ccco2)nnc1-c1ccccc1 (stereo not given) 100 µM [inhibitor, partial curve, poor fit], CCCCCc1c2c(cc(O)c1C(=O)O)OC(=O)c1c(cc(OC)cc1C(=O)CCCC)O2 28.2 µM [inhibitor, single point], COc1ccccc1NC(=O)NCCN1CCN(c2cccc(Cl)c2)CC1 100 µM [inhibitor, single point], COc1ccc(OC)c(NC(=O)c2c(NCc3cccs3)sc3c2CCCC3)c1 17.8 µM [inhibitor, partial curve, poor fit]

activity, negative = inhibition, inactive:
CC(=O)c1ccc2noc(-c3ccccc3)c2c1 33.8%, Cc1cccc(C(=O)NC(=S)Nc2ccccc2C(F)(F)F)c1 8.38%, C=C1C=C(C(F)F)n2ncc(C(=O)N3CCCCC3)c2N1 -4.2%, CC(C)c1ccc(NC(=O)c2cccc3c2C(=O)N(C2CCCCC2)C3)cc1 -0.564%, CCOc1cc(C(=O)N/N=C/c2cn(-c3ccccc3)nc2-c2cc3ccccc3o2)cc(OCC)c1OCC 36.8%, CCN(C(=O)CCn1cnc2onc(-c3ccc(F)cc3)c2c1=O)c1ccc(OC)cc1 -15.7%, COc1ccccc1N1C(=O)C2CC(C)=C(C)CC2C1=O (stereo not given) 7.45%, COc1cc(NC(=O)CC2C(=O)N(c3cccc(C)c3)C(=O)N2Cc2ccc(F)cc2)cc(OC)c1 (stereo not given) 4%, COc1cc2c(cc1OC)CN(C(=O)C(C)(C)C)CC2 39.6%, O=C(Nc1nn[nH]n1)C12CC3CC(CC(C3)C1)C2 -11%, CS(=O)(=O)Nc1ccc(C2=NN(C(=O)c3ccco3)C(c3ccccc3)C2)cc1 (stereo not given) 17.2%, CCc1ccc(NC(=O)CCS(=O)(=O)c2ccc3c(c2)n(C)c(=O)c(=O)n3C)cc1 6.7%, COC(=O)CN1C(=O)[C@@H]2[C@H](C1=O)[C@@H]1CC(C(=O)OC)=C[C@@H](C(=O)OC)C3C1=C(C(=O)[C@]3(C)NC(=O)c1ccccc1)[C@@H]2C (stereo not given in full) 10.1%, Cn1c(=O)c(C(=O)Nc2ncccc2O)c(O)c2ccccc21 -2.19%, CC(C)c1ccc(NC(=O)Cn2c(=O)n(CCc3ccccc3)c(=O)c3ccccc32)cc1 12.1%, CCc1cccc(CC)c1NC(=O)CN1C(=O)C(=O)c2ccccc21 9.71%, CCOc1ccc(C(=O)Nc2cccc(C(=O)O)c2)cc1Cl 13.9%
